Experimental findings from article PMC8009681 are described below.

By UniProt entry, the sequences of proteins in these tests, tags left out. Where a name states a change or a piece, a line headed by the entry shows the natural chain unless it says otherwise.
UniProt Q9LXU1: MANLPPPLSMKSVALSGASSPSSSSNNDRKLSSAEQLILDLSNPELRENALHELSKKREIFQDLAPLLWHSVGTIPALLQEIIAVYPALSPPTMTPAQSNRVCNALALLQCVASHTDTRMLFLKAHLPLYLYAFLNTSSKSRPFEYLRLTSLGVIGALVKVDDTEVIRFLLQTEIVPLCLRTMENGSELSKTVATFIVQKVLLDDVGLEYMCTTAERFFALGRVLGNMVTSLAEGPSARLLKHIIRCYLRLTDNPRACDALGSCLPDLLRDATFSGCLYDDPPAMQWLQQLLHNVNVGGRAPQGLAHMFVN

Results are given in words; binding and its absence hold for the method and conditions named. Binding seen in cells or lysates may run through a third protein. These calls come from enrichment with a bait or labelling near it, and not all partners need be listed.

The experiment deals with HA-YFP-NOT9B (Arabidopsis NOT9Box lines) (Arabidopsis thaliana) (UniProt Q9LXU1). In words: affinity purification with mass spectrometry; Arabidopsis seedlings (NOT9Box line 21c or YFP-HA), 4 days dark, FR light 5 hr; αGFP MicroBeads, IP buffer with 150 mM NaCl; LC-MS/MS of eluates.

B1: phyA (endogenous) (protein, UniProt P14712 1-1122)
chain: MSGSRPTQSSEGSRRSRHSARIIAQTTVDAKLHADFEESGSSFDYSTSVRVTGPVVENQPPRSDKVTTTYLHHIQKGKLIQPFGCLLALDEKTFKVIAYSENASELLTMASHAVPSVGEHPVLGIGTDIRSLFTAPSASALQKALGFGDVSLLNPILVHCRTSAKPFYAIIHRVTGSIIIDFEPVKPYEVPMTAAGALQSYKLAAKAITRLQSLPSGSMERLCDTMVQEVFELTGYDRVMAYKFHEDDHGEVVSEVTKPGLEPYLGLHYPATDIPQAARFLFMKNKVRMIVDCNAKHARVLQDEKLSFDLTLCGSTLRAPHSCHLQYMANMDSIASLVMAVVVNEEDGEGDAPDATTQPQKRKRLWGLVVCHNTTPRFVPFPLRYACEFLAQVFAIHVNKEVELDNQMVEKNILRTQTLLCDMLMRDAPLGIVSQSPNIMDLVKCDGAALLYKDKIWKLGTTPSEFHLQEIASWLCEYHMDSTGLSTDSLHDAGFPRALSLGDSVCGMAAVRISSKDMIFWFRSHTAGEVRWGGAKHDPDDRDDARRMHPRSSFKAFLEVVKTRSLPWKDYEMDAIHSLQLILRNAFKDSETTDVNTKVIYSKLNDLKIDGIQELEAVTSEMVRLIETATVPILAVDSDGLVNGWNTKIAELTGLSVDEAIGKHFLTLVEDSSVEIVKRMLENALEGTEEQNVQFEIKTHLSRADAGPISLVVNACASRDLHENVVGVCFVAHDLTGQKTVMDKFTRIEGDYKAIIQNPNPLIPPIFGTDEFGWCTEWNPAMSKLTGLKREEVIDKMLLGEVFGTQKSCCRLKNQEAFVNLGIVLNNAVTSQDPEKVSFAFFTRGGKYVECLLCVSKKLDREGVVTGVFCFLQLASHELQQALHVQRLAERTAVKRLKALAYIKRQIRNPLSGIMFTRKMIEGTELGPEQRRILQTSALCQKQLSKILDDSDLESIIEGCLDLEMKEFTLNEVLTASTSQVMMKSNGKSVRITNETGEEVMSDTLYGDSIRLQQVLADFMLMAVNFTPSGGQLTVSASLRKDQLGRSVHLANLEIRLTHTGAGIPEFLLNQMFGTEEDVSEEGLSLMVSRKLVKLMNGDVQYLRQAGKSSFIITAELAAANK
For B1, the binding entry is “binds”.
